The source of these data is the supplement of paper PMC7666118.

Chains of the proteins cited; added tags and fusions are not shown. Lines headed by an entry give the natural chain unless they say otherwise; changes in a name come on top.
UniProt Q9Y3E5: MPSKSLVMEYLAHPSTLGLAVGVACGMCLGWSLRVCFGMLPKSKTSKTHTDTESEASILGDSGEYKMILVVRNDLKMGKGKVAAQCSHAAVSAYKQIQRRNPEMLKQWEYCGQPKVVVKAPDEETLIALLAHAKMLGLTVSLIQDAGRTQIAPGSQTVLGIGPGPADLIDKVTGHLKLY
UniProt Q96LA8, whole entry, looked up: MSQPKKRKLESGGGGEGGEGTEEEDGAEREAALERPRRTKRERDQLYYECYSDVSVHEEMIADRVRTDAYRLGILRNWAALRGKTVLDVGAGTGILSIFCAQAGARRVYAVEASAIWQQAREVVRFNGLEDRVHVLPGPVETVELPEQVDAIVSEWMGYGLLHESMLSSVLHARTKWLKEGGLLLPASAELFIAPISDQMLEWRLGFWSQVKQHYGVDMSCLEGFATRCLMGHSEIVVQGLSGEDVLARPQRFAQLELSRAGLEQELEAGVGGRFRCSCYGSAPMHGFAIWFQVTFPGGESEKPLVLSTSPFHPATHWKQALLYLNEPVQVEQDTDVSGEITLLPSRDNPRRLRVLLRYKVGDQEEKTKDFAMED
UniProt O95456: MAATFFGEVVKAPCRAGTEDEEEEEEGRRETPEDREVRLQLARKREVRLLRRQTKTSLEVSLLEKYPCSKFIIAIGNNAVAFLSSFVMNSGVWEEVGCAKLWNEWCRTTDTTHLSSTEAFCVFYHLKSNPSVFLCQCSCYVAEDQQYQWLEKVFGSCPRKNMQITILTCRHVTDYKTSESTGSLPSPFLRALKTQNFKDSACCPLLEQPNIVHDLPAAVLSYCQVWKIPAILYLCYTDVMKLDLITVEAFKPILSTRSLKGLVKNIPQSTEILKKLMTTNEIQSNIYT
UniProt Q86YV0: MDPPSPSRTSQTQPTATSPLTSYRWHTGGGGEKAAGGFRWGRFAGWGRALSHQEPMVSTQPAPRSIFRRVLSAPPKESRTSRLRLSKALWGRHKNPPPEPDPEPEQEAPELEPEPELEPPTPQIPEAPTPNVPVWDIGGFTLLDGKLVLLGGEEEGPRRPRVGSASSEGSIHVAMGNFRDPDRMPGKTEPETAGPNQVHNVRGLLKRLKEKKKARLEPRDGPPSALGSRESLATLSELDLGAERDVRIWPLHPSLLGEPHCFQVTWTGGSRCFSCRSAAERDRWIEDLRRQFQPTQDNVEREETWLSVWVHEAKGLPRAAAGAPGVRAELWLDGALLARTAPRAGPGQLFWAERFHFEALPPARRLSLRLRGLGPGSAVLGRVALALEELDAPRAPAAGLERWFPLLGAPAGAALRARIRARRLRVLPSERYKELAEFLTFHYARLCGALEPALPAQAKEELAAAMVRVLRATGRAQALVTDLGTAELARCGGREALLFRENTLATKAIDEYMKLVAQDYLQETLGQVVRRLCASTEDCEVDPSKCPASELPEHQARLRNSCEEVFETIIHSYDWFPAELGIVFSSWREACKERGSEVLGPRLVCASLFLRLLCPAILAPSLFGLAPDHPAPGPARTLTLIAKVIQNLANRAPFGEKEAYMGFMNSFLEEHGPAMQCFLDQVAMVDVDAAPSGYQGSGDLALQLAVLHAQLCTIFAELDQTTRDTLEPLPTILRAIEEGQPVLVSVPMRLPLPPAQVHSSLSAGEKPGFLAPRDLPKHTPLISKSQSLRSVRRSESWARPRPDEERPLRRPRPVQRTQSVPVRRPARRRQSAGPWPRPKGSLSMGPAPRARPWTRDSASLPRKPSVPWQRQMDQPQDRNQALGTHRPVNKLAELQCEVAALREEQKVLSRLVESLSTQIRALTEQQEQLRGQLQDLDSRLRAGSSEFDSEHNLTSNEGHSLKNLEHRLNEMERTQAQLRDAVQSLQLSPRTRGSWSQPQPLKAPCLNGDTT
UniProt P46060: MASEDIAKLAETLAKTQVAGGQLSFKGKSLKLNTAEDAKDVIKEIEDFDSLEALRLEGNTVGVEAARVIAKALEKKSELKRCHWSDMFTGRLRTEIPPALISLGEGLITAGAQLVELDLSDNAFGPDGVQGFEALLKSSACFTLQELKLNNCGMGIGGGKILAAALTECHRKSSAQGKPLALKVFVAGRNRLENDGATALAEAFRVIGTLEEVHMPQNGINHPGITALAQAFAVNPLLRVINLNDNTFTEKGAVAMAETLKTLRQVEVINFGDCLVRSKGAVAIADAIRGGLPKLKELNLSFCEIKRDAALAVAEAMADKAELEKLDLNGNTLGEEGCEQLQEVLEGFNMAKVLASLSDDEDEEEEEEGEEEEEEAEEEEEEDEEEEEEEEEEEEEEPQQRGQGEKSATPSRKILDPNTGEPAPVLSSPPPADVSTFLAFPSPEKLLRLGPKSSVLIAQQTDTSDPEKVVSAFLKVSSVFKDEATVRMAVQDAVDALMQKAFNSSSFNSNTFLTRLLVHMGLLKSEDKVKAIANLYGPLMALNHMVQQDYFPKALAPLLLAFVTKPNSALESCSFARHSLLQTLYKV
UniProt Q7Z6M1: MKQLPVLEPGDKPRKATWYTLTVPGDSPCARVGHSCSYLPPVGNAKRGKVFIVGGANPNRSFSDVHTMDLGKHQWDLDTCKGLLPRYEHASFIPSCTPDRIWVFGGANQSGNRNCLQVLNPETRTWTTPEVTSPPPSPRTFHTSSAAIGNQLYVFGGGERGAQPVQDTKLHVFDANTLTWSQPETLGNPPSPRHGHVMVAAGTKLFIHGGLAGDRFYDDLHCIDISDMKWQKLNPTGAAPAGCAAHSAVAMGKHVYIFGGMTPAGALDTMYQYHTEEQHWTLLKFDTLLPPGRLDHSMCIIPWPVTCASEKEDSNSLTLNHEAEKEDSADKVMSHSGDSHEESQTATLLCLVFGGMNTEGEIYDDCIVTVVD
UniProt P61018: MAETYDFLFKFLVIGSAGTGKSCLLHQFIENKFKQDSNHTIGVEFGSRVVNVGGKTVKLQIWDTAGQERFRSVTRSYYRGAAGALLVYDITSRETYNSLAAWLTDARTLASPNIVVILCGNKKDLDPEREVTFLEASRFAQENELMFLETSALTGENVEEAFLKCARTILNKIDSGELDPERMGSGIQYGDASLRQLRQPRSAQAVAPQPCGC
UniProt P78330: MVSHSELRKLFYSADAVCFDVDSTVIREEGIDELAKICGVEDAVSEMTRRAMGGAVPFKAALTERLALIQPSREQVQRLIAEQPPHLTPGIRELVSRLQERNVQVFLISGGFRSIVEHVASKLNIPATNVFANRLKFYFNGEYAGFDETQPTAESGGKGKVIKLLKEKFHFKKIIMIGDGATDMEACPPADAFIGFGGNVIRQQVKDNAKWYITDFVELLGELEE
UniProt Q9H7Z7: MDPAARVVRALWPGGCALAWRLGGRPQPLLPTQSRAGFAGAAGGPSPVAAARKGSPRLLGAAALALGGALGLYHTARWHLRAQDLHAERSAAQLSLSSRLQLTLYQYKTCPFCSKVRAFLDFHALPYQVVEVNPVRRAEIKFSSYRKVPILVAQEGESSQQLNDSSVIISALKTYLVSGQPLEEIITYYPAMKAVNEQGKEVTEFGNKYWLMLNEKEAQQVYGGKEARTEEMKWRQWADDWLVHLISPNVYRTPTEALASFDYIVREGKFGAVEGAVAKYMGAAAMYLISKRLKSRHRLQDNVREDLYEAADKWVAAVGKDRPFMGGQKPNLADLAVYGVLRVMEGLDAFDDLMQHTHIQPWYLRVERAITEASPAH
UniProt Q8WUK0: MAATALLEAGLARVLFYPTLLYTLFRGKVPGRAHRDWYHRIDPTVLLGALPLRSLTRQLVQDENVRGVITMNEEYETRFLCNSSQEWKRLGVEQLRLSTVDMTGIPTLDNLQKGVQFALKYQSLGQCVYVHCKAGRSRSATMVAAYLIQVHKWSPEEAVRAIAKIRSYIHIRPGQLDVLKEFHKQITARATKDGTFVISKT
UniProt P18031: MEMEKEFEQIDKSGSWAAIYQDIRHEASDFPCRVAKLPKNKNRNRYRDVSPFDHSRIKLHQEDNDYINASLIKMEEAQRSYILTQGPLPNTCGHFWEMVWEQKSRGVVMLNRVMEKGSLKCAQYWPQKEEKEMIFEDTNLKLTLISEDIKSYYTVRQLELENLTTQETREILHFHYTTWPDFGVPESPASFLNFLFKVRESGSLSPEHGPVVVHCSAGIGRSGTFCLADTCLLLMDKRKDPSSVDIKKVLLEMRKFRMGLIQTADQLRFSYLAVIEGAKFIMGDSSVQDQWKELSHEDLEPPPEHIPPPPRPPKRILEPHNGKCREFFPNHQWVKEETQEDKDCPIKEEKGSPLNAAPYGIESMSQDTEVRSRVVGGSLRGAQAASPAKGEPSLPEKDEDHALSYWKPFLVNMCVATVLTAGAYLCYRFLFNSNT
UniProt P53611: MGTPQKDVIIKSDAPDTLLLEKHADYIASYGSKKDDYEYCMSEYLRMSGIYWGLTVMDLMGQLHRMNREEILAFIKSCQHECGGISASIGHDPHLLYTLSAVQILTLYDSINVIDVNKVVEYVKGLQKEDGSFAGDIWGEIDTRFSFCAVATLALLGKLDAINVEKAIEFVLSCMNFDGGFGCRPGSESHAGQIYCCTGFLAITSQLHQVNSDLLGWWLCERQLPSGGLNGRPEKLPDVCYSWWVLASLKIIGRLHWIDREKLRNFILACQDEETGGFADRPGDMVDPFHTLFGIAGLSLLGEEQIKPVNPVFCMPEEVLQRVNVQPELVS
UniProt Q9BW83: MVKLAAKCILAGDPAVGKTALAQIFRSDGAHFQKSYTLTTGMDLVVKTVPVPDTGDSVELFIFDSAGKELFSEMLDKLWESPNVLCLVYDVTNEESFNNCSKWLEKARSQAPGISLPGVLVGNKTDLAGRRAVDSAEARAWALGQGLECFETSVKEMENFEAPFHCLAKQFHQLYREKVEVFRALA
UniProt P24158: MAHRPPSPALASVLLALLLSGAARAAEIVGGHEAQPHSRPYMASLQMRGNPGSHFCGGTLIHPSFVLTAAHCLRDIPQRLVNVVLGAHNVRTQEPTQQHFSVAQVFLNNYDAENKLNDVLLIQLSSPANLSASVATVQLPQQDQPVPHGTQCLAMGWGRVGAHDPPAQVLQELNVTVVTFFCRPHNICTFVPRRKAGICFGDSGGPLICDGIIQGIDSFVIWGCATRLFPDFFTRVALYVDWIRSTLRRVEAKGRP
UniProt P53801: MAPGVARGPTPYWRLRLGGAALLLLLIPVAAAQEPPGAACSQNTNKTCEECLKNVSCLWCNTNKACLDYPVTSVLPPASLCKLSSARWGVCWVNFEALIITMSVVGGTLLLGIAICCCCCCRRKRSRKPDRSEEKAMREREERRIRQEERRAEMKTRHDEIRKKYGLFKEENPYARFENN
UniProt Q9UMS4: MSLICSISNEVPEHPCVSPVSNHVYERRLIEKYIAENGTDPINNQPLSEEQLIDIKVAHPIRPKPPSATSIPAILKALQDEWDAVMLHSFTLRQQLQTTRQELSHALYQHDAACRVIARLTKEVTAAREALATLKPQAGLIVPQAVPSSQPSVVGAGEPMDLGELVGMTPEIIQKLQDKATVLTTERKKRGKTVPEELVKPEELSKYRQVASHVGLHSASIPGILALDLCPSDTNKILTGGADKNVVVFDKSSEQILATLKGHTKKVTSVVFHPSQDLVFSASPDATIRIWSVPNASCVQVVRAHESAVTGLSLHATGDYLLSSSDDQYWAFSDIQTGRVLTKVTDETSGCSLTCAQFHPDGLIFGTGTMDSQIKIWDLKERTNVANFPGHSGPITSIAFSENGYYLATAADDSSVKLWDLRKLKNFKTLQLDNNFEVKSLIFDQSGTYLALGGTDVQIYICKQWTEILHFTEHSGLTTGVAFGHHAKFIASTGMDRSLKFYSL
UniProt P17980, whole entry: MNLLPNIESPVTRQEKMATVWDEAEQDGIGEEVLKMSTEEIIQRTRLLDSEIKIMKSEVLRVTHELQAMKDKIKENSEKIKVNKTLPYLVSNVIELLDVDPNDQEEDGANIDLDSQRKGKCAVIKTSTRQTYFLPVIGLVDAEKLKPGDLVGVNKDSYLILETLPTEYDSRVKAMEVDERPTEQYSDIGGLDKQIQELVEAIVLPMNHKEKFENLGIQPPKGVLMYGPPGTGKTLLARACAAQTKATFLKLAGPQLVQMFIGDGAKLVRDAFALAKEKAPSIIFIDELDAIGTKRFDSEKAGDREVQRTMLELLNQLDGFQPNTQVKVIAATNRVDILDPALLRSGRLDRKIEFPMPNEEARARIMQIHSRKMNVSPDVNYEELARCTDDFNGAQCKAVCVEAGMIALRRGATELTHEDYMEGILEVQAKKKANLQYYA
UniProt Q99633: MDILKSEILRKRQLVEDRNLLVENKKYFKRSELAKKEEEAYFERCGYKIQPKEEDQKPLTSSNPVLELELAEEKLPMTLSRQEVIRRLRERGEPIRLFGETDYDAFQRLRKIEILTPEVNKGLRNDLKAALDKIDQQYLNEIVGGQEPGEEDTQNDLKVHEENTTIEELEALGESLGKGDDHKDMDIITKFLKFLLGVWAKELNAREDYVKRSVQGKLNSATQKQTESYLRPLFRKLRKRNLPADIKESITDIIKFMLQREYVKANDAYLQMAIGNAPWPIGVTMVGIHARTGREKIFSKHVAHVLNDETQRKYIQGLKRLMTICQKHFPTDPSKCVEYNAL

This is one part of the list.

Compound in this assay: COc1ccc(Cn2ccc3ccc(C(=O)NO)cc32)cc1
Kind of assay: dose-dependent thermal stabilisation call (2D-TPP, DLPTP, 10% FDR) (binary (1 = stabilised)); higher = stabilised by the compound. The following applies: system: HL-60 intact cells; concentration range 0.04-10 µM.
For the target PTRH2 (UniProt Q9Y3E5), the “dose-dependent thermal stabilisation call” value was inactive: 0.
As for RBM39 (UniProt Q14498), the “dose-dependent thermal stabilisation call” value was inactive: 0.
The result for PRMT6 (UniProt Q96LA8) reads inactive: 0; that for RAB21 (UniProt Q9UL25), inactive: 0; that for PSMG1 (UniProt O95456), inactive: 0.
The result for RASAL3 (UniProt Q86YV0) reads inactive: 0.
To PWP2 (UniProt Q15269) belongs inactive: 0; to RANGAP1 (UniProt P46060), inactive: 0; to RANBP10 (UniProt Q6VN20), inactive: 0.
Turning to PXMP2 (UniProt Q9NR77), the “dose-dependent thermal stabilisation call” value was inactive: 0.
The result for RABEPK (UniProt Q7Z6M1) reads inactive: 0; that for RAB4B (UniProt P61018), inactive: 0; that for PSPH (UniProt P78330), inactive: 0.
To RAC1 (UniProt P63000) belongs inactive: 0.
The result for PSMD5 (UniProt Q16401) reads inactive: 0.
On to PRPSAP2 (UniProt O60256), for which the “dose-dependent thermal stabilisation call” value is inactive: 0.
The result for PTGES2 (UniProt Q9H7Z7) reads inactive: 0; that for PTPMT1 (UniProt Q8WUK0), inactive: 0; that for RAB31 (UniProt Q13636), inactive: 0.
The result for PWP1 (UniProt Q13610) reads inactive: 0; that for RAB1A (UniProt P62820), inactive: 0; that for RBM22 (UniProt Q9NW64), inactive: 0.
As for PTDSS1 (UniProt P48651), the “dose-dependent thermal stabilisation call” value was inactive: 0.
To RAVER2 (UniProt Q9HCJ3) belongs inactive: 0; to PTPN1 (UniProt P18031), inactive: 0.
The result for RABGGTB (UniProt P53611) reads inactive: 0.
To PTTG1 (UniProt O95997) belongs inactive: 0; to RBM4B (UniProt Q9BQ04), inactive: 0.
Take RAB5A (UniProt P20339): the “dose-dependent thermal stabilisation call” value is inactive: 0.
To RABL4 (UniProt Q9BW83) belongs inactive: 0; to RAB18 (UniProt Q9NP72), inactive: 0.
To PRTN3 (UniProt P24158) belongs inactive: 0; to PTTG1IP (UniProt P53801), inactive: 0.
For the target PRPF19 (UniProt Q9UMS4), the “dose-dependent thermal stabilisation call” value is inactive: 0.
With RBM25 (UniProt P49756), the “dose-dependent thermal stabilisation call” value was inactive: 0.
In the case of PSMC3 (UniProt P17980), the “dose-dependent thermal stabilisation call” value was inactive: 0.
With QTRTD1 (UniProt Q9H974), the “dose-dependent thermal stabilisation call” value is inactive: 0.
The result for PRPF18 (UniProt Q99633) reads inactive: 0.
